Taken from: PubChem BioAssay AID1159584 (Peter MacCallum Cancer Centre, 2016)
Here is an unselected part of about 18,000 reagents tested. Not all columns of the deposit are shown. No sequences are given here. Not stated in the record: the amount of reagent, the time to read-out.

Aim: 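Genes that CDH1-null MCF10A cells selectively depend on to survive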 (primary screen)
System: human MCF10A breast epithelial cells, parental and CDH1-null
Knock-down reagent: siRNA against human genes
Detection: 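ATP luminescence (CellTiter-Glo) viability per line relative to mean mock wells over all plates, and the ratio of CDH1-null to parental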
Reading the numbers: CDH1-null / parental viability ratio: higher = CDH1-null cells survive relatively better than parental

The opening 5 entries, ahead of the listing:
| gene symbol | CDH1-null / parental viability ratio |
| --- | --- |
| PAGE2B (GeneID 389860) | 0.82 |
| VPS8 (GeneID 23355) | 0.92 |
| RGS20 (GeneID 8601) | 1.12 |
| CPOX (GeneID 1371) | 0.66 |
| PLA2G4A (GeneID 5321) | 0.85 |

The listing, repeating the preview:
| gene symbol | CDH1-null / parental viability ratio |
| --- | --- |
| PAGE2B (GeneID 389860) | 0.82 |
| VPS8 (GeneID 23355) | 0.92 |
| RGS20 (GeneID 8601) | 1.12 |
| CPOX (GeneID 1371) | 0.66 |
| PLA2G4A (GeneID 5321) | 0.85 |
| SPACDR (GeneID 402573) | 0.86 |
| SEC23IP (GeneID 11196) | 0.74 |
| FASTK (GeneID 10922) | 1.49 |
| OSBPL6 (GeneID 114880) | 1.04 |
| ALPP (GeneID 250) | 1.2 |
| TENM3 (GeneID 55714) | 0.92 |
| CALCOCO1 (GeneID 57658) | 0.86 |
| KDM4C (GeneID 23081) | 0.88 |
| SERPINB6 (GeneID 5269) | 0.83 |
| DDX54 (GeneID 79039) | 1.23 |
| DDR1 (GeneID 780) | 0.97 |
| BAHCC1 (GeneID 57597) | 0.9 |
| FZR1 (GeneID 51343) | 1.38 |
| PLLP (GeneID 51090) | 1.05 |
| DECR1 (GeneID 1666) | 0.84 |
| CT47A2 (GeneID 728090) | 1.15 |
| MYRIP (GeneID 25924) | 1.59 |
| YIF1B (GeneID 90522) | 0.81 |
| OR5F1 (GeneID 338674) | 1.07 |
| RAB15 (GeneID 376267) | 1.26 |
| VMO1 (GeneID 284013) | 1.19 |
| FAM177A1 (GeneID 283635) | 0.64 |
| GFRA4 (GeneID 64096) | 0.95 |
| ARPC1A (GeneID 10552) | 1.21 |
| RIN3 (GeneID 79890) | 1.03 |
| CXCL17 (GeneID 284340) | 0.81 |
| UHRF2 (GeneID 115426) | 1.15 |
| REXO4 (GeneID 57109) | 0.85 |
| MYOM2 (GeneID 9172) | 0.85 |
| DUSP28 (GeneID 285193) | 1.04 |
| TNFSF4 (GeneID 7292) | 1.37 |
| PPIA (GeneID 5478) | 1.03 |
| PFDN1 (GeneID 5201) | 0.67 |
| FSD1 (GeneID 79187) | 1.3 |
| ALDH8A1 (GeneID 64577) | 0.79 |
| ZNF827 (GeneID 152485) | 1.14 |
| MGAT1 (GeneID 4245) | 0.92 |
| MFSD12 (GeneID 126321) | 1.27 |
| JMJD7-PLA2G4B (GeneID 8681) | 1.03 |
| CHRNA4 (GeneID 1137) | 1.38 |
| TMEM143 (GeneID 55260) | 0.91 |
| GATAD2A (GeneID 54815) | 0.94 |
| PIH1D1 (GeneID 55011) | 1.25 |
| GNAO1 (GeneID 2775) | 0.99 |
| POLE4 (GeneID 56655) | 0.72 |
| WIPF1 (GeneID 7456) | 1.09 |
| C1QL3 (GeneID 389941) | 0.95 |
| PIP4K2C (GeneID 79837) | 1.01 |
| TRIM52 (GeneID 84851) | 0.94 |
| ALX4 (GeneID 60529) | 1.04 |
| CPED1 (GeneID 79974) | 1.01 |
| GPT (GeneID 2875) | 1.06 |
| EMP3 (GeneID 2014) | 1.2 |
| SLC22A14 (GeneID 9389) | 0.96 |
| TSPYL6 (GeneID 388951) | 0.9 |
| TTLL9 (GeneID 164395) | 0.8 |
| MRPS26 (GeneID 64949) | 1.45 |
| TMEM101 (GeneID 84336) | 0.86 |
| ESCO1 (GeneID 114799) | 1.18 |
| NEUROD2 (GeneID 4761) | 0.93 |
| DENND2B (GeneID 6764) | 1.19 |
| SH2B3 (GeneID 10019) | 0.9 |
| ITFG2 (GeneID 55846) | 1 |
